# From patent publication US20240082416A1, “AMATOXIN ANALOGS AND USES THEREOF” (THE UNIVERSITY OF BRITISH COLUMBIA, priority 2020, published 2024)
# Part of at least one peptide drawing is inferred or uncertain, most often the ends. At least one structure is not confirmed: it was looked up by name or label, or the drawing left a doubt. Starred links: 1 amine or outer side, 2 acyl side, 3 side chain; linkers in the order of their positions; H or OH if unused. Positions of bridges follow the written chain, without caps; N, C: chain ends. Non-standard residues stand in square brackets, D forms with d. Residues, ends and D or L forms follow the SMILES beside them. Trp(2-yl) = O=C([C@H](Cc1c([*:3])[nH]c2ccccc12)N[*:1])[*:2]; Ile(4R-OH,5-OH) = C[C@H]([C@H](N)C(=O)O)[C@@H](O)CO; X3 = CC(=O)NCS[C@@H]1C[C@@H](C(=O)[*:2])N([*:1])C1
# Molecular target: T1, Pol II (Homo sapiens, UniProt P24928)
# T1 construct: HeLaScribe® nuclear extract containing Pol II and all other transcription factors; purchased Promega; host or cells: HeLa nuclear extract (endogenous protein)
# Assay: In vitro transcription runoff assay using HeLaScribe nuclear extract
# Assay type: biochemical
# Conditions: up to 1 μM concentrations
# Source text: (h) In vitro transcription assay of synthetic amanitins containing analogs of Hyp: Primers were purchased from IDT via standard phosphoramidite chemistry. dNTP and rNTP were purchased from Thermofisher. GoTaq polymerase and HeLaScribe*Nuclear Extract in vitro Transcription System was purchased from Promega. Taq polymerase was purchased from NEB. [^32P] α-dGTP (3000 Ci/mmol 10 mCi/ml EasyTide) and [^32P] α-GTP (3000 Ci/mmol 10 mCi/ml EasyTide) were purchased from Perkin Elmer. QIAquick PCR purifcation kit was purchased from Qiagen. AcGFP1-N1 was a gift (Addgene plasmid #54705; http://n2t.net/addgene:54705; RRID:Addgene_54705). DNA Primer sequences were:
# The DNA template for transcription runoff was synthesized by PCR with template pAcGFP-N1, and primers P1 and P2. To a final volume of 20 μL, 1 x GoTaq Buffer, 250 μM of each dNTP, 500 nM of each primers P1 and P2, […] pAcGFP-N1 and 0.05 U/μL GoTaq were employed to thermocycle for 30 cycles (30 s at 95° C., 30 s at 50° C. and 60 s at 72° C., Bio-Rad). A 1 μL aliquot of the amplified solution was resolved with 6×DNA loading dye in a 1% agarose gel containing […] and then visualized using GelDoc XR imager (Bio-Rad). Purification was completed via QIAquick PCR purification kit (Qiagen). […] Dosimetry was calculated by ImageJ, and the 3 parameter logistic fit was completed by Origin 2019 (OriginLab). […]
compound,measurement,value
"CC[C@H](C)[C@@H]1NC(=O)CNC(=O)[C@@H]2Cc3c([nH]c4ccccc34)SC[C@H](NC(=O)CNC1=O)C(=O)N[C@@H](CC(N)=O)C(=O)N1C[C@H](SCNC(C)=O)C[C@H]1C(=O)N[C@@H]([C@@H](C)[C@@H](O)CO)C(=O)N2 [Compound 8, SAcm-Pro-amanitin] (cyclo(CN[X3][Ile(4R-OH,5-OH)][Trp(2-yl)]GIG); thioether 1-5)",inhibitory effects,did not exhibit any noticeable inhibitory effects
